Results taken from US6562591.
These are yes or no findings as the source states them, for the method shown. Binding seen in cells or lysates may run through a third protein. Some entries that bind do so weakly or less than the wild type. Tags and fused reporters may be left off the sequences shown. One block for each binder: values may come before it.

Sequences of proteins named here, by UniProt entry; tags and fusion partners are left off. A change or cut given only in a name is not applied to a line headed by its entry.
UniProt Q9UKE5: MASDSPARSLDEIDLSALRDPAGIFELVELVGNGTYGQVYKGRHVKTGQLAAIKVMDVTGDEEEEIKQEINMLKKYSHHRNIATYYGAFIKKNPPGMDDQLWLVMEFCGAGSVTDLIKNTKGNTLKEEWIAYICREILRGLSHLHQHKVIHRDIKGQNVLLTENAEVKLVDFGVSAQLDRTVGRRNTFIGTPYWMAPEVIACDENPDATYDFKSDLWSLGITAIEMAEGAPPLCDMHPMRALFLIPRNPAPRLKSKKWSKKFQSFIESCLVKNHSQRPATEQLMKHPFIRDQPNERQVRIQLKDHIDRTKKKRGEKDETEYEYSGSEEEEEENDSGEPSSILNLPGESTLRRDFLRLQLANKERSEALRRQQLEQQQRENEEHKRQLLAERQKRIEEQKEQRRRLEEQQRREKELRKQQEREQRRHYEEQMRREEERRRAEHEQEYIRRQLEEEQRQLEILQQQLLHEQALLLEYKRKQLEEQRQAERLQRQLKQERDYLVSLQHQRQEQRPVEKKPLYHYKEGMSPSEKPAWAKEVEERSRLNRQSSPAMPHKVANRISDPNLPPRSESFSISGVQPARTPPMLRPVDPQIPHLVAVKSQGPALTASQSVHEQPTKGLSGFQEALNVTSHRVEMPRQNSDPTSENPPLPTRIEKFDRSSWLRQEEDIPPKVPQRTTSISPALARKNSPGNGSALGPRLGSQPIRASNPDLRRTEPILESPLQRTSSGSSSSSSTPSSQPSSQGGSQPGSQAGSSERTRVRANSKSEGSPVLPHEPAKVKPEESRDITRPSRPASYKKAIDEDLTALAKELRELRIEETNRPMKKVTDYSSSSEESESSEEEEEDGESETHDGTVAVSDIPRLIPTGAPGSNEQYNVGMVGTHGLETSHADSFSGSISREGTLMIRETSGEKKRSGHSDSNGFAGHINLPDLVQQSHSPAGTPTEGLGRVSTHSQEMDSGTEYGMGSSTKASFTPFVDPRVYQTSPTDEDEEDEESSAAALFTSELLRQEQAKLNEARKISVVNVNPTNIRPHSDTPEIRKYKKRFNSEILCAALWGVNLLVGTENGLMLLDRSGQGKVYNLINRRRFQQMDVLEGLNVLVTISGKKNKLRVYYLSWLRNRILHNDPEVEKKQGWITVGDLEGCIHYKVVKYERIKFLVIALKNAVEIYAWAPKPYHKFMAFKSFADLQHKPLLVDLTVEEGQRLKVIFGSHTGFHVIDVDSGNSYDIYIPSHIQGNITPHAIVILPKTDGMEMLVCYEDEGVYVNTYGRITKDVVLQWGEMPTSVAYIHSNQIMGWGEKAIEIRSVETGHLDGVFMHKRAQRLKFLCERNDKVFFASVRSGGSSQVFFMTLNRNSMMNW

Assays:
[1] = target: HA-Tnik(WT), full length human Tnik isoform 1 with N-terminal HA epitope tag (human) (UniProt Q9UKE5); test: co-immunoprecipitation: anti-HA IP, anti-FLAG blot, Phoenix-A cell lysates
[2] = target: T1, FLAG-TRAF2, full length human Traf2 with N-terminal FLAG epitope tag (human) (UniProt Q12933); test: as above
T1 sequence: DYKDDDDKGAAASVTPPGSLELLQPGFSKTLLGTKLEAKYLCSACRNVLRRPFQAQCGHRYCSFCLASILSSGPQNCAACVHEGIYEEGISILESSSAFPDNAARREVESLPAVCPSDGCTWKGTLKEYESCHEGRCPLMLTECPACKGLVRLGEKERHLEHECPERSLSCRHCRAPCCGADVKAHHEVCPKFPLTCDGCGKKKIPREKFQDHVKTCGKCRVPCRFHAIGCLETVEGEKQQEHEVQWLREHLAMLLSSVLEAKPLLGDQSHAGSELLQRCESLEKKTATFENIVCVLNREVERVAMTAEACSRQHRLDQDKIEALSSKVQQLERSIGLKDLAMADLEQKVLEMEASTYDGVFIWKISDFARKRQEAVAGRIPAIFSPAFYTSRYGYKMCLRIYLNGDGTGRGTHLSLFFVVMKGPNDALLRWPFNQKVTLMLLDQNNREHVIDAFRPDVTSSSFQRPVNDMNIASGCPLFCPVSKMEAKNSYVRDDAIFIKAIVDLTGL

binding [1]: binds
B1: FLAG-TRAF2, full length human Traf2 with N-terminal FLAG epitope tag (protein)
chain: T1 sequence

binding [2]: binds
B2: HA-Tnik(N2), truncated form of Tnik (enzyme)
chain: AYPYDVPDYAMASDSPARSLDEIDLSALRDPAGIFELVELVGNGTYGQVYKGRHVKTGQLAAIKVMDVTGDEEEEIKQEINMLKKYSHHRNIATYYGAFIKKNPPGMDDQLWLVMEFCGAGSVTDLIKNTKGNTLKEEWIAYICREILRGLSHLHQHKVIHRDIKGQNVLLTENAEVKLVDFGVSAQLDRTVGRRNTFIGTPYWMAPEVIACDENPDATYDFKSDLWSLGITAIEMAEGAPPLCDMHPMRALFLIPRNPAPRLKSKKWSKKFQSFIESCLVKNHSQRPATEQLMKHPFIRDQPNERQVRIQLKDHIDRTKKKRGEKDETEYEYSGSEEEEEENDSGEPSSILNLPGESTLRRDFLRLQLANKERSEALRRQQLEQQQRENEEHKRQLLAERQKRIEEQKEQRRRLEEQQRREKELRKQQEREQRRHYEEQMRREEERRRAEHEQEYIRRQLEEEQRQLEILQQQLLHEQALLLEYKRKQLEEQRQAERLQRQLKQERDYLVSLQHQRQEQRPVEKKPLYHYKEGMSPSEKPAWAKEVEERSRLNRQSSPAMPHKVANRISDPNLPPRSESFSISGVQPARTPPMLRPVDPQIPHLVAVKSQGPALTASQSVHEQPTKGLSGFQEALNVTSHRVEMPRQNSDPTSENPPLPTRIEKFDRSSWLRQEEDIPPKVPQRTTSISPALARKNSPGNGSALGPRLGSQPIRASNPDLRRTEPILESPLQRTSSGSSSSSSTPSSQPSSQGGSQPGSQAGSSERTRVRANSKSEGSPVLPHEPAKVKPEESRDITRPSRPASYKKAIDEDLTALAKELRELRIEETNRPMKKVTDYSSSSEESESSEEEEEDGESETHDGTVAVSDIPRLIPTGAPGSNEQYNVGMVGTHGLETSHADSFSGSISREGTLMIRETSGEKKRSGHSDSNGFAGHINLPDLVQQSHSPAGTPTEGLGRVSTHSQEMDSGTEYGMGSSTKASFTPFVDPRVYQTSPTDEDEEDEESSAAALFTSELLRQEQAKLNEA

binding [1]: binds
B3: FLAG-TRAF2(272-501) (protein, human)
chain: DYKDDDDKGCESLEKKTATFENIVCVLNREVERVAMTAEACSRQHRLDQDKIEALSSKVQQLERSIGLKDLAMADLEQKVLEMEASTYDGVFIWKISDFARKRQEAVAGRIPAIFSPAFYTSRYGYKMCLRIYLNGDGTGRGTHLSLFFVVMKGPNDALLRWPFNQKVTLMLLDQNNREHVIDAFRPDVTSSSFQRPVNDMNIASGCPLFCPVSKMEAKNSYVRDDAIFIKAIVDLTGL

binding [1]: binds
B4: FLAG-TRAF2(87-501) (protein, human)
chain: DYKDDDDKGSSSAFPDNAARREVESLPAVCPSDGCTWKGTLKEYESCHEGRCPLMLTECPACKGLVRLGEKERHLEHECPERSLSCRHCRAPCCGADVKAHHEVCPKFPLTCDGCGKKKIPREKFQDHVKTCGKCRVPCRFHAIGCLETVEGEKQQEHEVQWLREHLAMLLSSVLEAKPLLGDQSHAGSELLQRCESLEKKTATFENIVCVLNREVERVAMTAEACSRQHRLDQDKIEALSSKVQQLERSIGLKDLAMADLEQKVLEMEASTYDGVFIWKISDFARKRQEAVAGRIPAIFSPAFYTSRYGYKMCLRIYLNGDGTGRGTHLSLFFVVMKGPNDALLRWPFNQKVTLMLLDQNNREHVIDAFRPDVTSSSFQRPVNDMNIASGCPLFCPVSKMEAKNSYVRDDAIFIKAIVDLTGL

binding [2]: binds
B5: HA-Tnik(M), intermediate domain of Tnik (protein)
chain: AYPYDVPDYAIDRTKKKRGEKDETEYEYSGSEEEEEENDSGEPSSILNLPGESTLRRDFLRLQLANKERSEALRRQQLEQQQRENEEHKRQLLAERQKRIEEQKEQRRRLEEQQRREKELRKQQEREQRRHYEEQMRREEERRRAEHEQEYIRRQLEEEQRQLEILQQQLLHEQALLLEYKRKQLEEQRQAERLQRQLKQERDYLVSLQHQRQEQRPVEKKPLYHYKEGMSPSEKPAWAKEVEERSRLNRQSSPAMPHKVANRISDPNLPPRSESFSISGVQPARTPPMLRPVDPQIPHLVAVKSQGPALTASQSVHEQPTKGLSGFQEALNVTSHRVEMPRQNSDPTSENPPLPTRIEKFDRSSWLRQEEDIPPKVPQRTTSISPALARKNSPGNGSALGPRLGSQPIRASNPDLRRTEPILESPLQRTSSGSSSSSSTPSSQPSSQGGSQPGSQAGSSERTRVRANSKSEGSPVLPHEPAKVKPEESRDITRPSRPASYKKAIDEDLTALAKELRELRIEETNRPMKKVTDYSSSSEESESSEEEEEDGESETHDGTVAVSDIPRLIPTGAPGSNEQYNVGMVGTHGLETSHADSFSGSISREGTLMIRETSGEKKRSGHSDSNGFAGHINLPDLVQQSHSPAGTPTEGLGRVSTHSQEMDSGTEYGMGSSTKASFTPFVDPRVYQTSPTDEDEEDEESSAAALFTSELLRQEQAKLNEA
